No constants are given. Whether binding was seen depends on the method and setting. For part of these data: A result given as binding can be weak or reduced; the word gives no strength. For part of these data: Binding seen in cells or lysates may run through a third protein.
Legend:
[1] = target: AtRFC3 with deletion of the N-terminus 1 to 247 aa (Arabidopsis thaliana) (UniProt Q9CAQ8); assay: split reporter; BiFC: fusions to YFP^N (1-155 aa) and YFP^C (156-239 aa) co-expressed transiently in Nicotiana benthamiana leaf epidermal cells; YFP seen by confocal microscopy
[2] = target: AtRFC5-YFP^N (Arabidopsis thaliana) (UniProt Q8VXX4); assay: as above
[3] = target: AtRFC3 Δ350–369 (Arabidopsis thaliana) (UniProt Q9CAQ8); assay: as above
[4] = target: AtRFC3-YFP^N (Arabidopsis thaliana) (UniProt Q9CAQ8); assay: as above
[5] = target: truncated AtRFC5 lacking 239 aa in its N-terminal (Arabidopsis thaliana) (UniProt Q8VXX4); assay: as above
[6] = target: AtRFC5 Δ335–354 (Arabidopsis thaliana) (UniProt Q8VXX4); assay: as above
[7] = target: AtRFC3-BD (Arabidopsis thaliana) (UniProt Q9CAQ8); assay: two-hybrid; Clontech system, yeast AH109; RFC subunits as BD fusions, PCNAs as AD fusions; growth on SD-Leu-Trp-His-Ade, 7 days at 28 °C
[8] = target: AtRFC5-BD (Arabidopsis thaliana) (UniProt Q8VXX4); assay: as above

By UniProt entry, the sequences of proteins in these tests, tags left out. Where a name states a change or a piece, a line headed by the entry shows the natural chain unless it says otherwise.
UniProt Q9CAQ8: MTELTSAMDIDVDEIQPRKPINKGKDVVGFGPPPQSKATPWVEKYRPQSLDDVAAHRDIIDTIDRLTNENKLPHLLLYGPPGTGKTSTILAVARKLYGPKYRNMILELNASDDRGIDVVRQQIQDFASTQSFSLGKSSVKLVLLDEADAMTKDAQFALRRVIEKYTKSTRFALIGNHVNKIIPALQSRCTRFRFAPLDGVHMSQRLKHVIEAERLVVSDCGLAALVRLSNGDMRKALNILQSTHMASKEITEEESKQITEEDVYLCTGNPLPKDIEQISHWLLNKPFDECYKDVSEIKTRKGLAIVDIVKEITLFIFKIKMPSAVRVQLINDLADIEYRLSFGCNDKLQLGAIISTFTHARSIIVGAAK
UniProt Q8VXX4: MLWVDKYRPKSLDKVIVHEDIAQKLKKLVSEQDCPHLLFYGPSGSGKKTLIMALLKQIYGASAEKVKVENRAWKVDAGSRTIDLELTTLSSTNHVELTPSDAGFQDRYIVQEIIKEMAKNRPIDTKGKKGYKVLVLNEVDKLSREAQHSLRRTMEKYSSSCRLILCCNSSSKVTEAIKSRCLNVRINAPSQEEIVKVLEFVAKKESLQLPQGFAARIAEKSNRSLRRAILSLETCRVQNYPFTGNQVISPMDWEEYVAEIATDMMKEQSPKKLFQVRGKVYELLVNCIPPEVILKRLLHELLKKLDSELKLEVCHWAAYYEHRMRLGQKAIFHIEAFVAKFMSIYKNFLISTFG
UniProt Q9M7Q7: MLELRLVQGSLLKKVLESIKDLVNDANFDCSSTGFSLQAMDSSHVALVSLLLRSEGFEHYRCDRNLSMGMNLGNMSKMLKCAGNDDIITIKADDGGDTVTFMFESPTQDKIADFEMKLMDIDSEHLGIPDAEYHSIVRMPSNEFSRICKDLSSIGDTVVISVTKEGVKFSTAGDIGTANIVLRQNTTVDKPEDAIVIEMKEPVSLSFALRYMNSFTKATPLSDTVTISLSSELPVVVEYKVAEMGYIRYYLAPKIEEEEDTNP
UniProt Q9ZW35: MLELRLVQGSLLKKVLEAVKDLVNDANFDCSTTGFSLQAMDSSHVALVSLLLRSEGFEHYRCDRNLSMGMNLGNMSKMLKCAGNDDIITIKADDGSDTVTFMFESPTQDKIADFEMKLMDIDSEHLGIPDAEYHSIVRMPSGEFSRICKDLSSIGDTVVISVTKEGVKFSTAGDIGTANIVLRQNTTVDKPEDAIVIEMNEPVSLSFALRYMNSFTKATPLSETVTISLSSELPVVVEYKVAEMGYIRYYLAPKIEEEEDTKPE
UniProt P17070: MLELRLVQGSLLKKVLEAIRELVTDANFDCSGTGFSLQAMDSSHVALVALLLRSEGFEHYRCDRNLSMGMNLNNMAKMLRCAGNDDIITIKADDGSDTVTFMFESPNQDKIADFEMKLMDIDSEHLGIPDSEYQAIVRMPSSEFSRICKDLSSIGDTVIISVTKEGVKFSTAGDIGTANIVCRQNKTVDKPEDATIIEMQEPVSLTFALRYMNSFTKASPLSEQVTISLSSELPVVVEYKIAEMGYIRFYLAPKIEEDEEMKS

| Substance | binding [1] | binding [2] | binding [3] | binding [4] | binding [5] | binding [6] | binding [7] | binding [8] |
| --- | --- | --- | --- | --- | --- | --- | --- | --- |
| AtPCNA1-YFP^C (from UniProt Q9M7Q7 1-263) | binds | binds | no binding | binds | binds | no binding |  |  |
| AtPCNA2-YFP^C (from UniProt Q9ZW35 1-264) | binds | binds | no binding | binds | binds | no binding |  |  |
| AtPCNA1-AD (from UniProt Q9M7Q7 1-263) |  |  |  |  |  |  | binds | binds |

Further lines, results first:

| binding [1] | binding [2] | binding [3] | binding [4] | binding [5] | binding [6] | binding [7] | binding [8] | Substance |
| --- | --- | --- | --- | --- | --- | --- | --- | --- |
|  |  |  |  |  |  | binds | binds | AtPCNA2-AD (from UniProt Q9ZW35 1-264) |
|  | binds |  | binds |  |  |  |  | OsPCNA-YFP^C (from UniProt P17070 1-263) |
